# Counter-ions that a name gives are not always drawn. This is one part of the list. Many values rest on one well or one pass, so single values are uncertain.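 Primary human fetal astrocytes engulfed labelled rat cortical synaptosomes, measured as a red/green ratio corrected for calcein live-cell signal and scaled to the plate median. Toxicity meant calcein falling over 30%; decreased phagocytosis meant below 70% of median above 5 µM.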
# Test system: Human fetal astrocytes
# Experiment: loss of total cells relative to no-compound high-control median (toxicity); higher = more toxic (fewer cells)
# Settings: 1.39 µM; 24 h
row,SMILES,loss of total cells [%]
1,CC(C)C[C@@H]1NC(=O)[C@H](CCCN)NC(=O)[C@H](C(C)C)NC(=O)[C@H](Cc2ccc(O)cc2)N[C@@H](CCC(=O)O)C(=O)N[C@@H](CC(N)=O)C(=O)[C@@H](Cc2ccccc2)NC(=O)[C@H](Cc2ccccc2)NC(=O)[C@@H]2CCCN2C(=O)[C@@H](Cc2ccccc2)NC1=O,33.5
2,C[N+](C)(C)CC(O)CC(=O)[O-] (stereo not given),-6.9
3,CC(=O)OCC(=O)[C@@]1(O)CC[C@H]2[C@@H]3CCC4=CC(=O)CC[C@]4(C)[C@H]3[C@@H](O)C[C@@]21C,-9.2
4,CCCN(CCC)S(=O)(=O)c1ccc(C(=O)O)cc1,8.6
5,CC(N)C12CC3CC(CC(C3)C1)C2 (stereo not given),32.3
6,CON,-18.9
7,Cn1c2ncnc-2c(O)n(C)c1=O,-13.4
8,CC(COc1ccccc1)NC(C)C(O)c1ccc(O)cc1 (stereo not given),-6.8
9,CN(C)CCCO[C@@H]1[C@H]2OC(C)(C)O[C@H]2O[C@@H]1[C@H](O)CO,-27.4
10,CS(=O)(=O)c1ccc([C@@H](O)[C@@H](CO)NC(=O)C(Cl)Cl)cc1,-41.9
11,C/C=N/N(C)C=O,7.6
12,C1CNCCN1,-6.8
13,NNC(=O)c1ccncc1.Nc1ccc(C(=O)O)c(O)c1,10.5
14,CC(C)NCC(O)c1cc(O)cc(O)c1 (stereo not given),18.3
15,O=C(/C=C/c1ccccc1)c1ccc(O[C@@H]2O[C@H](CO)[C@@H](O)[C@H](O)[C@H]2O)cc1O,-14.1
16,CCN(CC)CCCC(C)Nc1c2ccc(Cl)cc2nc2ccc(OC)cc12 (stereo not given) [Quinacrine dihydrochloride],15.1
17,CCN1CCCC1CNC(=O)c1cc(S(N)(=O)=O)ccc1OC (stereo not given),20.7
18,O=C(OOC(=O)c1ccccc1)c1ccccc1,-22.6
19,Cn1c(=O)c2nc(C3CCCC3)[nH]c2n(C)c1=O,11.2
20,CCN1CCCC(OC(=O)C(c2ccccc2)c2ccccc2)C1 (stereo not given),7.3

row,SMILES,loss of total cells [%]
1,COC(=O)C[C@H]1C(C)(C)[C@@H](O)[C@@H]2CC3=C4C=C(OC)O[C@@H](c5ccoc5)[C@]4(C)CCC3[C@@]1(C)C2=O (stereo partly drawn) [3-DEOXO-3beta-HYDROXYMEXICANOLIDE 16-ENOL ETHER],3.3
2,CC1(C)CC[C@]2(C(=O)O)CC[C@]3(C)C(=CC[C@@H]4[C@@]5(C)CC[C@H](O)C(C)(C)[C@@H]5CC[C@]43C)[C@@H]2C1,-17.8
3,Cc1onc(-c2ccccc2Cl)c1C(=O)N[C@@H]1C(=O)N2[C@@H]1SC(C)(C)[C@@H]2C(=O)O,4.5
4,O=C(O[C@H]1CN2CCC1CC2)N1CCc2ccccc2[C@@H]1c1ccccc1,-46
5,CC[C@H]1C(=O)OC[C@@H]1Cc1cncn1C,-13.9
6,CC1=C2C(=CO[C@H](C)[C@H]2C)C(=O)C(C(=O)O)=C1O,-9.8
7,COc1cc(OC)c2c(=O)c(OC)c(-c3ccc(OC)c(OC)c3)oc2c1,15.5
8,CCCCCCCCCc1ccc(OCCOCCOCCOCCOCCOCCOCCOCCOCCO)cc1,22.1
9,CC(=O)OC(C)(C)[C@@H]1Cc2cc3ccc(=O)oc3cc2O1,-13.1
10,C[C@@H]1CC[C@H]2C(C)(C)[C@H]3C[C@@]12CC[C@@]3(C)O,6.1
11,CCN(CC)CCOCCOC(=O)C(CC)(CC)c1ccccc1,10.5
12,CN(C)c1ccc2nc3ccc(=[N+](C)C)cc-3sc2c1,26.6
13,O=C1C(=O)c2ccccc2C(O)=C1C1CCC(c2ccc(Cl)cc2)CC1 (stereo not given),0
14,NC(Cc1ccc(F)cc1)C(=O)O (stereo not given),-5.4
15,O=c1oc2c(O)c(O)cc3c(=O)oc4c(O)c(O)cc1c4c23,7.6
16,CCOC(=O)CCC(=O)O[C@H]1[C@H](O[C@@H]2[C@@H](C)[C@H](O[C@H]3C[C@@](C)(OC)[C@@H](O)[C@H](C)O3)[C@@H](C)C(=O)O[C@H](CC)[C@@](C)(O)[C@H](O)[C@@H](C)C(=O)[C@H](C)C[C@@]2(C)O)O[C@H](C)C[C@@H]1N(C)C,-0.3
17,C=CC(N)CCC(=O)O (racemic) [(±)-gamma-Vinyl GABA],13.3
18,Nc1nc(=O)c2[nH]c(=O)cnc2[nH]1,-8.2
19,O=C(O)CCNC(=O)c1ccccc1,16.2
20,C=C1c2c(Cl)ccc(O)c2C(O)=C2C(=O)[C@]3(O)C(O)=C(C(N)=O)C(=O)[C@@H](N(C)C)[C@@H]3[C@@H](O)[C@H]12.O=C(O)c1cc(S(=O)(=O)O)ccc1O,-19.1

# Same assay, conditions: 2.78 µM; 24 h
row,SMILES,loss of total cells [%]
1,CC(C)C[C@@H]1NC(=O)[C@H](CCCN)NC(=O)[C@H](C(C)C)NC(=O)[C@H](Cc2ccc(O)cc2)N[C@@H](CCC(=O)O)C(=O)N[C@@H](CC(N)=O)C(=O)[C@@H](Cc2ccccc2)NC(=O)[C@H](Cc2ccccc2)NC(=O)[C@@H]2CCCN2C(=O)[C@@H](Cc2ccccc2)NC1=O,30.8
2,C[N+](C)(C)CC(O)CC(=O)[O-] (stereo not given),6.9
3,CC(=O)OCC(=O)[C@@]1(O)CC[C@H]2[C@@H]3CCC4=CC(=O)CC[C@]4(C)[C@H]3[C@@H](O)C[C@@]21C,-21.4
4,CCCN(CCC)S(=O)(=O)c1ccc(C(=O)O)cc1,-27.5
5,CC(N)C12CC3CC(CC(C3)C1)C2 (stereo not given),-40.5
6,CON,9
7,Cn1c2ncnc-2c(O)n(C)c1=O,6.1
8,CC(COc1ccccc1)NC(C)C(O)c1ccc(O)cc1 (stereo not given),-9.2
9,CN(C)CCCO[C@@H]1[C@H]2OC(C)(C)O[C@H]2O[C@@H]1[C@H](O)CO,-21.4
10,CS(=O)(=O)c1ccc([C@@H](O)[C@@H](CO)NC(=O)C(Cl)Cl)cc1,30.2
11,C/C=N/N(C)C=O,13.4
12,C1CNCCN1,-13.9
13,NNC(=O)c1ccncc1.Nc1ccc(C(=O)O)c(O)c1,14.1
14,CC(C)NCC(O)c1cc(O)cc(O)c1 (stereo not given),-3.4
15,O=C(/C=C/c1ccccc1)c1ccc(O[C@@H]2O[C@H](CO)[C@@H](O)[C@H](O)[C@H]2O)cc1O,5.3
16,CCN(CC)CCCC(C)Nc1c2ccc(Cl)cc2nc2ccc(OC)cc12 (stereo not given) [Quinacrine dihydrochloride],-10.5
17,CCN1CCCC1CNC(=O)c1cc(S(N)(=O)=O)ccc1OC (stereo not given),-13.1
18,O=C(OOC(=O)c1ccccc1)c1ccccc1,-33.3
19,Cn1c(=O)c2nc(C3CCCC3)[nH]c2n(C)c1=O,10.5
20,CCN1CCCC(OC(=O)C(c2ccccc2)c2ccccc2)C1 (stereo not given),-14.3

row,SMILES,loss of total cells [%]
1,COC(=O)C[C@H]1C(C)(C)[C@@H](O)[C@@H]2CC3=C4C=C(OC)O[C@@H](c5ccoc5)[C@]4(C)CCC3[C@@]1(C)C2=O (stereo partly drawn) [3-DEOXO-3beta-HYDROXYMEXICANOLIDE 16-ENOL ETHER],15.3
2,CC1(C)CC[C@]2(C(=O)O)CC[C@]3(C)C(=CC[C@@H]4[C@@]5(C)CC[C@H](O)C(C)(C)[C@@H]5CC[C@]43C)[C@@H]2C1,6.6
3,Cc1onc(-c2ccccc2Cl)c1C(=O)N[C@@H]1C(=O)N2[C@@H]1SC(C)(C)[C@@H]2C(=O)O,-7.8
4,O=C(O[C@H]1CN2CCC1CC2)N1CCc2ccccc2[C@@H]1c1ccccc1,-34.9
5,CC[C@H]1C(=O)OC[C@@H]1Cc1cncn1C,6.9
6,CC1=C2C(=CO[C@H](C)[C@H]2C)C(=O)C(C(=O)O)=C1O,3.3
7,COc1cc(OC)c2c(=O)c(OC)c(-c3ccc(OC)c(OC)c3)oc2c1,11.2
8,CCCCCCCCCc1ccc(OCCOCCOCCOCCOCCOCCOCCOCCOCCO)cc1,10.6
9,CC(=O)OC(C)(C)[C@@H]1Cc2cc3ccc(=O)oc3cc2O1,-21.3
10,C[C@@H]1CC[C@H]2C(C)(C)[C@H]3C[C@@]12CC[C@@]3(C)O,23.5
11,CCN(CC)CCOCCOC(=O)C(CC)(CC)c1ccccc1,13.4
12,CN(C)c1ccc2nc3ccc(=[N+](C)C)cc-3sc2c1,-13.5
13,O=C1C(=O)c2ccccc2C(O)=C1C1CCC(c2ccc(Cl)cc2)CC1 (stereo not given),-45.2
14,NC(Cc1ccc(F)cc1)C(=O)O (stereo not given),6.1
15,O=c1oc2c(O)c(O)cc3c(=O)oc4c(O)c(O)cc1c4c23,4.7
16,CCOC(=O)CCC(=O)O[C@H]1[C@H](O[C@@H]2[C@@H](C)[C@H](O[C@H]3C[C@@](C)(OC)[C@@H](O)[C@H](C)O3)[C@@H](C)C(=O)O[C@H](CC)[C@@](C)(O)[C@H](O)[C@@H](C)C(=O)[C@H](C)C[C@@]2(C)O)O[C@H](C)C[C@@H]1N(C)C,-6.4
17,C=CC(N)CCC(=O)O (racemic) [(±)-gamma-Vinyl GABA],11.9
18,Nc1nc(=O)c2[nH]c(=O)cnc2[nH]1,4
19,O=C(O)CCNC(=O)c1ccccc1,24.2
20,C=C1c2c(Cl)ccc(O)c2C(O)=C2C(=O)[C@]3(O)C(O)=C(C(N)=O)C(=O)[C@@H](N(C)C)[C@@H]3[C@@H](O)[C@H]12.O=C(O)c1cc(S(=O)(=O)O)ccc1O,-5.8

# Source: the supplement of paper PMC10689618
